PubChem BioAssay AID1508597, Cure First, 2020
Test: 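Genes whose silencing sensitises or protects ovarian cancer cells against rucaparib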 (primary screen). System: human ovarian carcinoma lines grown from tumours: OCI-P5x (papillary serous) and OCI-C5x (clear cell). Reagents: siRNA pool against human genes, 1.25 pmol siRNA per well. Time to read-out: 72 h or 96 h, depending on the cell culture. Conditions: rucaparib 20 µM (about IC30) or vehicle, present until read-out. Measurement: 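ATP luminescence measured at 72 or 96 h according to the culture, then normalised and expressed as percent viability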. Scale: viability, normalised: higher = more viable cells remaining. Active means: 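Active when normalised viability falls below 80 percent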. Calls: active = viability under 80%; inactive = viability 80% or more.
The deposit covers about 2,100 reagents; shown is an unselected part. 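Calls flag viability under 80% in either arm, not effects specific to rucaparib; the reference for percent is not stated.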 Entries without a mark were called inactive. Not stated in the record: the 100% reference.

{"gene symbol": "STKLD1 (serine/threonine kinase like domain containing 1)", "rucaparib or vehicle": "Rucaparib", "cell line": "OCI-C5x (clear cell)", "technical replicate": "1", "viability, normalised (%)": "41.1 (active)"}
{"gene symbol": "STKLD1 (serine/threonine kinase like domain containing 1)", "rucaparib or vehicle": "Rucaparib", "cell line": "OCI-C5x (clear cell)", "technical replicate": "2", "viability, normalised (%)": "58.1 (active)"}
{"gene symbol": "STKLD1 (serine/threonine kinase like domain containing 1)", "rucaparib or vehicle": "Rucaparib", "cell line": "OCI-C5x (clear cell)", "technical replicate": "3", "viability, normalised (%)": "54.2 (active)"}
{"gene symbol": "STKLD1 (serine/threonine kinase like domain containing 1)", "rucaparib or vehicle": "Rucaparib", "cell line": "OCI-P5x (serous)", "technical replicate": "1", "viability, normalised (%)": 113}
{"gene symbol": "STKLD1 (serine/threonine kinase like domain containing 1)", "rucaparib or vehicle": "Rucaparib", "cell line": "OCI-P5x (serous)", "technical replicate": "2", "viability, normalised (%)": 98.7}
{"gene symbol": "STKLD1 (serine/threonine kinase like domain containing 1)", "rucaparib or vehicle": "Rucaparib", "cell line": "OCI-P5x (serous)", "technical replicate": "3", "viability, normalised (%)": 83.1}
{"gene symbol": "STKLD1 (serine/threonine kinase like domain containing 1)", "rucaparib or vehicle": "Vehicle", "cell line": "OCI-C5x (clear cell)", "technical replicate": "1", "viability, normalised (%)": "72.8 (active)"}
{"gene symbol": "STKLD1 (serine/threonine kinase like domain containing 1)", "rucaparib or vehicle": "Vehicle", "cell line": "OCI-C5x (clear cell)", "technical replicate": "2", "viability, normalised (%)": "64.2 (active)"}
{"gene symbol": "STKLD1 (serine/threonine kinase like domain containing 1)", "rucaparib or vehicle": "Vehicle", "cell line": "OCI-C5x (clear cell)", "technical replicate": "3", "viability, normalised (%)": "51.4 (active)"}
{"gene symbol": "STKLD1 (serine/threonine kinase like domain containing 1)", "rucaparib or vehicle": "Vehicle", "cell line": "OCI-P5x (serous)", "technical replicate": "1", "viability, normalised (%)": 112}
{"gene symbol": "STKLD1 (serine/threonine kinase like domain containing 1)", "rucaparib or vehicle": "Vehicle", "cell line": "OCI-P5x (serous)", "technical replicate": "2", "viability, normalised (%)": 89.8}
{"gene symbol": "STKLD1 (serine/threonine kinase like domain containing 1)", "rucaparib or vehicle": "Vehicle", "cell line": "OCI-P5x (serous)", "technical replicate": "3", "viability, normalised (%)": 88.5}

Single entries from the list.
STKLD1 (serine/threonine kinase like domain containing 1), rucaparib or vehicle Vehicle, cell line OCI-P5x (serous), technical replicate 2, viability, normalised (%) = 89.8
For “viability, normalised (%)”, STKLD1 (serine/threonine kinase like domain containing 1), rucaparib or vehicle Vehicle, cell line OCI-C5x (clear cell), technical replicate 3 reads 51.4 (active)
STKLD1 (serine/threonine kinase like domain containing 1), rucaparib or vehicle Rucaparib, cell line OCI-P5x (serous), technical replicate 2, viability, normalised (%) = 98.7
Result of STKLD1 (serine/threonine kinase like domain containing 1), rucaparib or vehicle Rucaparib, cell line OCI-C5x (clear cell), technical replicate 1 in “viability, normalised (%)”: 41.1 (active)
For “viability, normalised (%)”, STKLD1 (serine/threonine kinase like domain containing 1), rucaparib or vehicle Rucaparib, cell line OCI-P5x (serous), technical replicate 3 has 83.1

Further records follow:
{"gene symbol": "NOG (noggin)", "rucaparib or vehicle": "Rucaparib", "cell line": "OCI-C5x (clear cell)", "technical replicate": "1", "viability, normalised (%)": "44.8 (active)"}
{"gene symbol": "NOG (noggin)", "rucaparib or vehicle": "Rucaparib", "cell line": "OCI-C5x (clear cell)", "technical replicate": "2", "viability, normalised (%)": "37 (active)"}
{"gene symbol": "NOG (noggin)", "rucaparib or vehicle": "Rucaparib", "cell line": "OCI-C5x (clear cell)", "technical replicate": "3", "viability, normalised (%)": "31.6 (active)"}
{"gene symbol": "NOG (noggin)", "rucaparib or vehicle": "Rucaparib", "cell line": "OCI-P5x (serous)", "technical replicate": "1", "viability, normalised (%)": "32.9 (active)"}
{"gene symbol": "NOG (noggin)", "rucaparib or vehicle": "Rucaparib", "cell line": "OCI-P5x (serous)", "technical replicate": "2", "viability, normalised (%)": "45.5 (active)"}
{"gene symbol": "NOG (noggin)", "rucaparib or vehicle": "Rucaparib", "cell line": "OCI-P5x (serous)", "technical replicate": "3", "viability, normalised (%)": "44.1 (active)"}
{"gene symbol": "NOG (noggin)", "rucaparib or vehicle": "Vehicle", "cell line": "OCI-C5x (clear cell)", "technical replicate": "1", "viability, normalised (%)": "31.6 (active)"}
{"gene symbol": "NOG (noggin)", "rucaparib or vehicle": "Vehicle", "cell line": "OCI-C5x (clear cell)", "technical replicate": "2", "viability, normalised (%)": "33.2 (active)"}
{"gene symbol": "NOG (noggin)", "rucaparib or vehicle": "Vehicle", "cell line": "OCI-C5x (clear cell)", "technical replicate": "3", "viability, normalised (%)": "38.8 (active)"}
{"gene symbol": "NOG (noggin)", "rucaparib or vehicle": "Vehicle", "cell line": "OCI-P5x (serous)", "technical replicate": "1", "viability, normalised (%)": "37.6 (active)"}
{"gene symbol": "NOG (noggin)", "rucaparib or vehicle": "Vehicle", "cell line": "OCI-P5x (serous)", "technical replicate": "2", "viability, normalised (%)": "46 (active)"}
{"gene symbol": "NOG (noggin)", "rucaparib or vehicle": "Vehicle", "cell line": "OCI-P5x (serous)", "technical replicate": "3", "viability, normalised (%)": "64.6 (active)"}
{"gene symbol": "MAPK1 (mitogen-activated protein kinase 1)", "rucaparib or vehicle": "Rucaparib", "cell line": "OCI-C5x (clear cell)", "technical replicate": "1", "viability, normalised (%)": "49.8 (active)"}
{"gene symbol": "MAPK1 (mitogen-activated protein kinase 1)", "rucaparib or vehicle": "Rucaparib", "cell line": "OCI-C5x (clear cell)", "technical replicate": "2", "viability, normalised (%)": "51.9 (active)"}
{"gene symbol": "MAPK1 (mitogen-activated protein kinase 1)", "rucaparib or vehicle": "Rucaparib", "cell line": "OCI-C5x (clear cell)", "technical replicate": "3", "viability, normalised (%)": "45.2 (active)"}
{"gene symbol": "MAPK1 (mitogen-activated protein kinase 1)", "rucaparib or vehicle": "Rucaparib", "cell line": "OCI-P5x (serous)", "technical replicate": "1", "viability, normalised (%)": "76.2 (active)"}
{"gene symbol": "MAPK1 (mitogen-activated protein kinase 1)", "rucaparib or vehicle": "Rucaparib", "cell line": "OCI-P5x (serous)", "technical replicate": "2", "viability, normalised (%)": "74.8 (active)"}
{"gene symbol": "MAPK1 (mitogen-activated protein kinase 1)", "rucaparib or vehicle": "Rucaparib", "cell line": "OCI-P5x (serous)", "technical replicate": "3", "viability, normalised (%)": "61.8 (active)"}
{"gene symbol": "MAPK1 (mitogen-activated protein kinase 1)", "rucaparib or vehicle": "Vehicle", "cell line": "OCI-C5x (clear cell)", "technical replicate": "1", "viability, normalised (%)": "38 (active)"}
{"gene symbol": "MAPK1 (mitogen-activated protein kinase 1)", "rucaparib or vehicle": "Vehicle", "cell line": "OCI-C5x (clear cell)", "technical replicate": "2", "viability, normalised (%)": "60 (active)"}
{"gene symbol": "MAPK1 (mitogen-activated protein kinase 1)", "rucaparib or vehicle": "Vehicle", "cell line": "OCI-C5x (clear cell)", "technical replicate": "3", "viability, normalised (%)": "53.8 (active)"}
{"gene symbol": "MAPK1 (mitogen-activated protein kinase 1)", "rucaparib or vehicle": "Vehicle", "cell line": "OCI-P5x (serous)", "technical replicate": "1", "viability, normalised (%)": "75.7 (active)"}
{"gene symbol": "MAPK1 (mitogen-activated protein kinase 1)", "rucaparib or vehicle": "Vehicle", "cell line": "OCI-P5x (serous)", "technical replicate": "2", "viability, normalised (%)": "58.5 (active)"}
{"gene symbol": "MAPK1 (mitogen-activated protein kinase 1)", "rucaparib or vehicle": "Vehicle", "cell line": "OCI-P5x (serous)", "technical replicate": "3", "viability, normalised (%)": "70 (active)"}
